Source: PMC7582951
Results are given in words; binding and its absence hold for the method and conditions named. Binding can be weak; no strength is given. For part of these data: Where a sequence is shown, tags or fusion partners need not be part of it.

The chains behind the UniProt entries cited, without tags or fusion partners. Where a name states a change or a piece, a line headed by the entry shows the natural chain unless it says otherwise. Residues count along the entry.
UniProt P11021, residues 19-654: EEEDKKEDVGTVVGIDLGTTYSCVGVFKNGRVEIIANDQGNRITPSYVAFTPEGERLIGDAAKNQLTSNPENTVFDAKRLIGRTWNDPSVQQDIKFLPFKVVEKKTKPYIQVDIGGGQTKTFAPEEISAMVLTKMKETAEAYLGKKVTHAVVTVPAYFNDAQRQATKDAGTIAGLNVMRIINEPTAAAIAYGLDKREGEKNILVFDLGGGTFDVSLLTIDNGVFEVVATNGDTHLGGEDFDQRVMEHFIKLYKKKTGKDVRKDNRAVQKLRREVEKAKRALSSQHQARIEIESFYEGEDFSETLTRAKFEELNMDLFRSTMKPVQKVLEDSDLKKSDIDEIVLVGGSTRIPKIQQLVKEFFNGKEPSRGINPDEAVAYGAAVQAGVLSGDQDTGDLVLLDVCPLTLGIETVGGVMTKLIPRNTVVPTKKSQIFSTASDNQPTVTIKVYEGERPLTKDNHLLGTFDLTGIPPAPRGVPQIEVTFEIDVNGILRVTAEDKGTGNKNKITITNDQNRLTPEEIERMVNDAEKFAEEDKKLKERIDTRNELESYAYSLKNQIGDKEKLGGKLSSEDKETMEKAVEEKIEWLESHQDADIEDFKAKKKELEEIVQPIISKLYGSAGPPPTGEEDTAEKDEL
UniProt Q8BLA8: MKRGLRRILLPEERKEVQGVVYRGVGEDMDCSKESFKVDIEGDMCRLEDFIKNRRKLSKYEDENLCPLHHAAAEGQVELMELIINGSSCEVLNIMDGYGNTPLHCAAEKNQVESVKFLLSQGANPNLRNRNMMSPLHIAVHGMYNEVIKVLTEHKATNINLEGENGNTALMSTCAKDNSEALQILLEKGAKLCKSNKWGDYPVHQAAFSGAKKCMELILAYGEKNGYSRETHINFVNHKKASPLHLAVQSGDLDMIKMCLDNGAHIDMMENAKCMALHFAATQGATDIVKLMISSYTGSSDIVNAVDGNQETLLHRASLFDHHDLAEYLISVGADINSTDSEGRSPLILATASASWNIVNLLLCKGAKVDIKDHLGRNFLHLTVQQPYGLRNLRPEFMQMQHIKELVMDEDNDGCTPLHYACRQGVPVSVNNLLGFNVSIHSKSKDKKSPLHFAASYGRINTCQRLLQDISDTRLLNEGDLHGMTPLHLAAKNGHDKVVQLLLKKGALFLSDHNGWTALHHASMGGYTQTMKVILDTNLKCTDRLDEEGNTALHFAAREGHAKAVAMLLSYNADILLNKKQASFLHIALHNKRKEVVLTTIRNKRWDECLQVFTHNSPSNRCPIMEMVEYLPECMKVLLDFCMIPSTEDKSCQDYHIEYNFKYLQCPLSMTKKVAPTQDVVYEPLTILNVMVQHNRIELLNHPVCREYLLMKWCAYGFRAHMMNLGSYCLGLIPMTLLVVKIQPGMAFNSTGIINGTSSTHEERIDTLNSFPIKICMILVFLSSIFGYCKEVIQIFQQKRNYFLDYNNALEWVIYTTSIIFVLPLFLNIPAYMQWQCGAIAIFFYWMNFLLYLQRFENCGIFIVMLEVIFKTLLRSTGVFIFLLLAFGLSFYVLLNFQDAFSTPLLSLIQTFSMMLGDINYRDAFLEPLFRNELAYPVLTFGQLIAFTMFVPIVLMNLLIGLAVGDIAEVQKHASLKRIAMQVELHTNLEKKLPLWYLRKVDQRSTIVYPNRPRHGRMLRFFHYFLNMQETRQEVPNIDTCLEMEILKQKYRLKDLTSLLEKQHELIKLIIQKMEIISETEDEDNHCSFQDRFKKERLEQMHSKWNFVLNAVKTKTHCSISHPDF
UniProt Q8R4D5: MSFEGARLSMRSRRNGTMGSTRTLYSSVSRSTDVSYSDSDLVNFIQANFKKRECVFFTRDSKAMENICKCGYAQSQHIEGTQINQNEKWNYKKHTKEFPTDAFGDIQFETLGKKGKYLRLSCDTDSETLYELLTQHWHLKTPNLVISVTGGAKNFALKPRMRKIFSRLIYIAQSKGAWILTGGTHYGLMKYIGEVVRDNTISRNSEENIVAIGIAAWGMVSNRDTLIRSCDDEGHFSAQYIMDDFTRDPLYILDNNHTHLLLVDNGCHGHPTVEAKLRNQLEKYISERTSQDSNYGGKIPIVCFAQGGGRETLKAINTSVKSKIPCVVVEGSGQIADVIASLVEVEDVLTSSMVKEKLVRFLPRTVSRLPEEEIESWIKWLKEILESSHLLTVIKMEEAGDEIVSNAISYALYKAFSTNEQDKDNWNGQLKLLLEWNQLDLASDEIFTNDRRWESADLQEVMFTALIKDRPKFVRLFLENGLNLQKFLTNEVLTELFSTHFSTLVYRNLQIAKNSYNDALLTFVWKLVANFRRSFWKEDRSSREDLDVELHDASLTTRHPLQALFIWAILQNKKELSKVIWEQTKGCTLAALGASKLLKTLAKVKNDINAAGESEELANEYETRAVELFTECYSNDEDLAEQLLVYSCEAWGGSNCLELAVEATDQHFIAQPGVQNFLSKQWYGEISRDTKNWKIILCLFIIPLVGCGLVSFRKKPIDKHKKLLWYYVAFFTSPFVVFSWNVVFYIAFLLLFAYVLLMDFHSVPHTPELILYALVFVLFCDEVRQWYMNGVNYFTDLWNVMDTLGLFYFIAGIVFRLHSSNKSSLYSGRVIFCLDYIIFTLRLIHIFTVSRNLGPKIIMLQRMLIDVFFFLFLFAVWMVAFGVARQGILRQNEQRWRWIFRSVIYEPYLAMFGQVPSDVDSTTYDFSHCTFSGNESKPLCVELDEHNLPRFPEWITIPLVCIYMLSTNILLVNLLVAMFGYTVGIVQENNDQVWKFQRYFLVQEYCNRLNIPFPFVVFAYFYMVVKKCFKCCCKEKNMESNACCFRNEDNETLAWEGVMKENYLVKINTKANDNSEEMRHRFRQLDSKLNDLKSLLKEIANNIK
UniProt O55242: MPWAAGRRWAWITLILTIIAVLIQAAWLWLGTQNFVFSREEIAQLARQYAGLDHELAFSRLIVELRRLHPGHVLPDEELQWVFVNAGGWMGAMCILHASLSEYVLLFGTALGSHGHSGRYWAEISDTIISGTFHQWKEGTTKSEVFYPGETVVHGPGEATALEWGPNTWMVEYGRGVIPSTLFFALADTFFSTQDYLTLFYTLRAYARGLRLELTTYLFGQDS

Columns and labels:
[1] = molecular target: binding immunoglobulin protein (BiP) (UniProt P11021); experiment: pull-down; NR1 C0-C1-C2, BiP or TRPV1 Ct covalently attached to NHS-activated Sepharose; 100 nM σ1R WT or E102Q; 0, 0.25, 0.83 and 2.5 mM CaCl2; 50 mM Tris-HCl pH 7.4, 0.2% CHAPS, 300 uL, 30 min, RT; σ1R in the pellet by western blot; both purified
[2] = molecular target: C0-C1-C2 region of the glutamate NMDAR NR1 subunit (mouse) (UniProt P35438); experiment: as above
[3] = molecular target: C0-C1-C2 region of the glutamate NMDAR NR1 subunit (mouse) (UniProt P35438); experiment: pull-down; as a1, at 'low calcium levels' (which of 0, 0.25 and 0.83 mM CaCl2 is not said); NR1 C0-C1-C2 on NHS-activated Sepharose, 100 nM σ1R; both purified
[4] = molecular target: binding immunoglobulin protein (BiP) (UniProt P11021); experiment: pull-down; NR1 C0-C1-C2, MOR1 Ct, HINT1, BiP and Nt and Ct domains of TRP channels covalently attached to NHS-activated Sepharose; 100 nM σ1R WT or E102Q; 2.5 mM CaCl2, 50 mM Tris-HCl pH 7.4, 0.2% CHAPS, 300 uL, 30 min, RT; western blot; both purified
[5] = molecular target: T1, histidine triad nucleotide-binding protein 1 (HINT1) (mouse) (UniProt P70349); experiment: as above
T1 sequence: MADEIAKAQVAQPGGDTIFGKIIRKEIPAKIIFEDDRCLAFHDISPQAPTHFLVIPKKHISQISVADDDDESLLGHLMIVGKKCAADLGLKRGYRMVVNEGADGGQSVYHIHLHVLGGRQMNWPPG

[6] = molecular target: C-terminal cytosolic region of TRPA1 (mouse) (UniProt Q8BLA8); experiment: as above
[7] = molecular target: N-terminal cytosolic region of TRPM8 (mouse) (UniProt Q8R4D5); experiment: as above
[8] = molecular target: C-terminal region of the mu-opioid receptor MOR1 (mouse) (UniProt P42866); experiment: as above
[9] = molecular target: C0-C1-C2 region of the glutamate NMDAR NR1 subunit (mouse) (UniProt P35438); experiment: as above
[10] = molecular target: N-terminal cytosolic region of TRPA1 (mouse) (UniProt Q8BLA8); experiment: as above
[11] = molecular target: binding immunoglobulin protein (BiP) (UniProt P11021); experiment: pull-down; preformed complexes of σ1R WT or E102Q (100 nM) with Sepharose-attached NR1 C0-C1-C2 or BiP, washed, then 30 min at RT with increasing concentrations of σ1R ligands (progesterone, S1RA, PPCC, pregnenolone sulfate); 50 mM Tris-HCl, 0.2% CHAPS, 2.5 mM CaCl2; σ1R left on the beads by immunoblot; both purified
[12] = molecular target: C0-C1-C2 region of the glutamate NMDAR NR1 subunit (mouse) (UniProt P35438); experiment: as above

binding [1]: binds weakly | binding [2]: binds | binding [3]: binds | binding [4]: binds weakly | binding [5]: binds | binding [6]: binds | binding [7]: binds | binding [8]: binds | binding [9]: binds | binding [10]: binds | binding [11]: binds | binding [12]: binds
Substance: sigma receptor type 1 (σ1R) E102Q mutant (from UniProt O55242)
